{"source": "patent US20230374534A1", "about": "(INDUSTRY ACADEMIC COOPERATION FOUNDATION GYEONGSANG …, published 2023)", "proteins": {"B1": {"name": "His-CBF1 (histidine-tagged C-repeat-binding transcription factor 1), recombinant (other)", "chain": "MNSFSAFSEMFGSDYEPQGGDYCPTLATSCPKKPAGRKKFRETRHPIYRGVRQRNSGKWVSEVREPNKKTRIWLGTFQTAEMAARAHDVAALALRGRSACLNFADSAWRLRIPESTCAKDIQKAAAEAALAFQDETCDTTTTNHGLDMEETMVEAIYTPEQSEGAFYMDEETMFGMPTLLDNMAEGMLLPPPSVQWNHNYDGEGDGDVSLWSY", "notes": "Transcription factor; It forms disulfide-linked oligomers of several sizes on non-reducing gels; also called His-CBFs; not shown: His tag from the pET28a vector"}}, "target": "the molecule itself", "assay": "non-reducing SDS-PAGE and western blot of recombinant His-CBF1; self-association through disulfide bonds, dissociated by DTT (FIG. 2A)", "procedure": "FIGS. 2A and 2B show the western blot analysis of purified His-CBF1 incubated with 1 mM DTT or H₂O₂ (FIG. 2A) and with a Trx system containing 0.5 mM NADPH, 1 μM Trx reductase, and 5 μM Trx-h2 or Trx-h2(C/S) (FIG. 2B) at 25° C. for 30 min. Structural changes in CBF1 were analyzed by SDS-PAGE on non-reducing gels. FIGS. 2C and 2D show the western blot analysis of Trx-h2-mediated structural dissociation of CBF1 in CBF1-Myc^OE/Col-0 (FIG. 2C) and CBF1-Myc^OE/trx-h2 (FIG. 2D) plants exposed to cold. […]\nRedox-dependent structural modification of CBF1 was examined in vitro using purified recombinant His-CBF1 or His-CBF1(C/S) protein incubated with H₂O₂ (oxidizing agent) or DTT (reducing agent) at 25° C. for 15 min. The effect of the reducing power of Trx-h2 on His-CBF1 was analyzed at 25° C. for 30 min using a Trx system containing NADPH, Trx reductase, and either Trx-h2 or Trx-h2(C/S). Proteins were separated by SDS-PAGE on reducing and non-reducing gels, and protein structures were detected by western blotting with anti-His (Abcam, Cambridge, MA, USA) and anti-Trx-h2 antibodies. The structural switching of CBF1 was also analyzed in vivo using 2-week-old CBF1-Myc^OE/Col-0 plants."}
{"protein": "B1", "values": [{"measurement": "binding result", "value": "binds"}]}
